According to paper PMC5510845:
These are yes or no findings as the source states them, for the method shown. Binding seen in cells or lysates may run through a third protein. Binding calls can cover weak binding; strength is not graded here. Tags and fused reporters may be left off the sequences shown.

Target: protein A tagged GRγ (co-IP) (rat)
Experiment: co-IP; luciferase-based co-IP; PA-tagged GR precipitated from cleared T-Rex 293 cell extract in IgG-coated microtiter plates, 1 h at 4°C; firefly-V5-tagged partner read by luciferase activity, as fold change over protein A only; cells treated for 1 h with 1 μM dexamethasone or ethanol vehicle

Row | binding | Binder
1 | binds | firefly-V5-tagged JDP2 (Jun dimerization protein-2, co-IP) (protein, UniProt Q8WYK2-2 1-174) MVAGWPATPPAMMPGQIPDPSVTTGSLPGLGPLTGLPSSALTVEELKYADIRNLGAMIAPLHFLEVKLGKRPQPVKSELDEEEERRKRRREKNKVAAARCRNKKKERTEFLQRESERLELMNAELKTQIEELKQERQQLILMLNRHRPTCIVRTDSVKTPESEGNPLLEQLEKK
2 | binds | luciferase-BATF3 fusion protein (firefly-V5-tagged BATF3, co-IP) (protein, UniProt Q9NR55 1-127) MSQGLPAAGSVLQRSVAAPGNQPQPQPQQQSPEDDDRKVRRREKNRVAAQRSRKKQTQKADKLHEEYESLEQENTMLRREIGKLTEELKHLTEALKEHEKMCPLLLCPMNFVPVPPRPDPVAGCLPR
